Data as given in PMC8435237, “Overexpressing the N‐terminus of CATALASE2 enhances plant jasmonic acid biosynthesis and resistance to necrotrophic pathogen Botrytis cinerea B05.10” (Molecular Plant Pathology, 2021).

Experiments:
Assay in all cases: two-hybrid; yeast two-hybrid; CAT2 forms in pGBKT7, ACX2 and ACX3 in pGADT7; growth of yeast as in Yuan et al., 2017
[1] = target: truncated CAT2 N-terminus (CAT2-N), yeast two-hybrid construct (Arabidopsis thaliana)
[2] = target: CAT2-N+H (N-terminus plus H-fragment of CAT2), yeast two-hybrid construct (Arabidopsis thaliana)
[3] = target: CAT2 C-terminus (CAT2-C), yeast two-hybrid construct (Arabidopsis thaliana)

binding [1] | binding [2] | binding [3] | Binder
binds | binds | no binding | acyl-CoA oxidase 3 (ACX3), in pGADT7 (enzyme, UniProt P0CZ23 1-675) MSDNRALRRAHVLANHILQSNPPSSNPSLSRELCLQYSPPELNESYGFDVKEMRKLLDGHNVVDRDWIYGLMMQSNLFNRKERGGKIFVSPDYNQTMEQQREITMKRIWYLLENGVFKGWLTETGPEAELRKLALLEVCGIYDHSVSIKVGVHFFLWGNAVKFFGTKRHHEKWLKNTEDYVVKGCFAMTELGHGSNVRGIETVTTYDPKTEEFVINTPCESAQKYWIGGAANHATHTIVFSQLHINGTNQGVHAFIAQIRDQDGSICPNIRIADCGHKIGLNGVDNGRIWFDNLRIPRENLLNAVADVSSDGKYVSSIKDPDQRFGAFMAPLTSGRVTIASSAIYSAKVGLSIAIRYSLSRRAFSVTANGPEVLLLDYPSHQRRLLPLLAKTYAMSFAANELKMIYVKRTPETNKAIHVVSSGFKAVLTWHNMHTLQECREAVGGQGVKTENLVGQLKGEFDVQTTFEGDNNVLMQQVSKALFAEYVSCKKRNKPFKGLGLEHMNSPRPVLPTQLTSSTLRCSQFQTNVFCLRERDLLEQFTSEVAQLQGRGESREFSFLLSHQLAEDLGKAFTEKAILQTILDAEAKLPTGSVKDVLGLVRSMYALISLEEDPSLLRYGYLSQDNVGDVRREVSKLCGELRPHALALVTSFGIPDSFLSPIAFNWVEANAWSSV
binds | binds | no binding | acyl-CoA oxidase 2 (ACX2), in pGADT7 (enzyme, UniProt O65201 1-692) MESRREKNPMTEEESDGLIAARRIQRLSLHLSPSLTPSPSLPLVQTETCSARSKKLDVNGEALSLYMRGKHIDIQEKIFDFFNSRPDLQTPIEISKDDHRELCMNQLIGLVREAGVRPFRYVADDPEKYFAIMEAVGSVDMSLGIKMGVQYSLWGGSVINLGTKKHRDKYFDGIDNLDYTGCFAMTELHHGSNVQGLQTTATFDPLKDEFVIDTPNDGAIKWWIGNAAVHGKFATVFARLILPTHDSKGVSDMGVHAFIVPIRDMKTHQTLPGVEIQDCGHKVGLNGVDNGALRFRSVRIPRDNLLNRFGDVSRDGTYTSSLPTINKRFGATLGELVGGRVGLAYASVGVLKISATIAIRYSLLRQQFGPPKQPEVSILDYQSQQHKLMPMLASTYAYHFATVYLVEKYSEMKKTHDEQLVADVHALSAGLKSYVTSYTAKALSVCREACGGHGYAAVNRFGSLRNDHDIFQTFEGDNTVLLQQVAADLLKRYKEKFQGGTLTVTWSYLRESMNTYLSQPNPVTARWEGEDHLRDPKFQLDAFRYRTSRLLQNVAARLQKHSKTLGGFGAWNRCLNHLLTLAESHIETVILAKFIEAVKNCPDPSAKAALKLACDLYALDRIWKDIGTYRNVDYVAPNKAKAIHKLTEYLSFQVRNVAKELVDAFELPDHVTRAPIAMQSDAYSQYTQVVGF

These are yes or no findings as the source states them, for the method shown. For part of these data: A result given as binding can be weak or reduced; the word gives no strength.
